One compound from article PMC12785511, “Integrative Profiling for BBB Permeability Using Capillary Electrochromatography, Experimental Physicochemical Parameters, and Ensemble Machine Learning” (International Journal of Molecular Sciences, 2025) can be followed below.

The nature of data set [1]: open-tubular capillary electrochromatography (CEC), permeability k′ parameter. Type of data set: in vitro ADME. The settings on record: pH 7.4 HEPES buffer 40 mM, migration times in coated and uncoated capillary, mean ± SD of three independent experiments.
The nature of the next data set: physchem. As to conditions: pH 7.4.

Consider `COc1cc2c(cc1OC)C(=O)C(CC1CCN(Cc3ccccc3)CC1)C2` (centres unmarked) [donepezil], for which the “k′ ± SD (CEC)” value in data set [1] was −0.01233 ± 0.00010. Also, the log distribution coefficient (logD) in the data set “physchem” is 2.19.

What is called logD is lipophilicity at a set pH, counting ionised and neutral species. Low values mean lower lipophilicity, high ones higher lipophilicity.
